The list is a part of this screen's results and no random one: it gathers some chemical classes. Not every dose and run of a compound is shown. T/C gives the treated animals as a percentage of the vehicle group. Where survival is the endpoint, the PubChem record calls one and a half times the control and up active, and a quarter to a half above the control has no call in these data; cut-offs in other NCI protocols can differ. Schedule codes are those of the source, taken here to give the interval after Q, in days (D) or hours (H), and the number of doses after X. Some entries show no survivor count and are marked so; the dose need not have been tolerated. Some entries hold several experiments; the results are listed from low to high. Marks such as (2×) stand for listed records that agree.
System: CD2F1 mice, L1210 leukemia ip, survival T/C
Test: NCI In Vivo Anticancer Drug Screen. Data for tumor model L1210 Leukemia (intraperitoneal) in CD2F1 (CDF1) mice
Details: T/C endpoint: mean survival time, higher T/C = longer survival
Procedure: The antitumor activity of compounds was measured in mice bearing transplantable tumors. Survival or tumor size were measured and the results are expressed as the measurement made in the treated group (T) divided by the measurement made in the vehicle treated control group (C). The tumor model used in this assay is L1210 Leukemia (intraperitoneal) in CD2F1 (CDF1) mice

## CN(CCCl)CCCl
dose: 0.01 mg/kg/injection, schedule: Q03HX024 (ip), vehicle: water
  T/C: 110 % of control [survivor count not shown]
dose: 0.03 mg/kg/injection, schedule: Q01DX009 (ip), vehicle: water
  T/C: 107 % of control [survivor count not shown]
dose: 0.03 mg/kg/injection, schedule: Q03HX016 (ip), vehicle: water
  T/C: 121 % of control [survivor count not shown]
dose: 0.03 mg/kg/injection, schedule: Q03HX024 (ip), vehicle: water
  T/C: 121 % of control [survivor count not shown]
dose: 0.06 mg/kg/injection, schedule: Q01DX009 (ip), vehicle: saline
  T/C: 145 % of control [survivor count not shown]
dose: 0.06 mg/kg/injection, schedule: Q01DX009 (ip), vehicle: water
  T/C: 112 % of control [survivor count not shown]
dose: 0.06 mg/kg/injection, schedule: Q03HX008 (ip), vehicle: water
  T/C: 121 % of control [survivor count not shown]
dose: 0.06 mg/kg/injection, schedule: Q03HX016 (ip), vehicle: water
  T/C: 126 % of control [survivor count not shown]
dose: 0.06 mg/kg/injection, schedule: Q03HX024 (ip), vehicle: water
  T/C: 125 % of control [survivor count not shown]
dose: 0.1 mg/kg/injection, schedule: Q01DX009 (ip), vehicle: saline
  T/C: 151 % of control [survivor count not shown]
dose: 0.12 mg/kg/injection, schedule: Q01DX009 (ip), vehicle: saline
  T/C: 223 % of control [survivor count not shown]
dose: 0.13 mg/kg/injection, schedule: Q01DX001 (ip), vehicle: saline
  T/C: 114 % of control [survivor count not shown]
dose: 0.13 mg/kg/injection, schedule: Q01DX005 (iv), vehicle: water
  T/C: 103 % of control [survivor count not shown]
dose: 0.13 mg/kg/injection, schedule: Q01DX007 (ip), vehicle: saline
  T/C: 147 % of control [survivor count not shown]
dose: 0.13 mg/kg/injection, schedule: Q01DX009 (ip), vehicle: saline
  T/C: 120 [survivor count not shown] and 153 % of control [survivor count not shown]
dose: 0.13 mg/kg/injection, schedule: Q01DX009 (ip), vehicle: water
  T/C: 122 % of control [survivor count not shown]
dose: 0.13 mg/kg/injection, schedule: Q01DX009 (sc), vehicle: water
  T/C: 100 % of control [survivor count not shown]
dose: 0.13 mg/kg/injection, schedule: Q03DX003 (ip), vehicle: saline
  T/C: 132 % of control [survivor count not shown]
dose: 0.13 mg/kg/injection, schedule: Q03HX008 (ip), vehicle: water
  T/C: 138 % of control [survivor count not shown]
dose: 0.13 mg/kg/injection, schedule: Q03HX016 (ip), vehicle: water
  T/C: 126 % of control [survivor count not shown]
dose: 0.13 mg/kg/injection, schedule: Q03HX024 (ip), vehicle: water
  T/C: 129 % of control [survivor count not shown]
dose: 0.13 mg/kg/injection, schedule: Q04DX003 (ip), vehicle: saline
  T/C: 127 % of control [survivor count not shown]
dose: 0.13 mg/kg/injection, schedule: Q04DX003 (ip), vehicle: water
  T/C: 121 % of control [survivor count not shown]
dose: 0.19 mg/kg/injection, schedule: Q01DX009 (ip), vehicle: saline
  T/C: 151 % of control [survivor count not shown]
dose: 0.19 mg/kg/injection, schedule: Q04DX003 (ip), vehicle: saline
  T/C: 131 % of control [survivor count not shown]
dose: 0.2 mg/kg/injection, schedule: Q01DX001 (ip), vehicle: none
  T/C: 119 % of control [survivor count not shown]
dose: 0.2 mg/kg/injection, schedule: Q01DX001 (ip), vehicle: saline
  T/C: 119 % of control [survivor count not shown]
dose: 0.25 mg/kg/injection, schedule: Q01DX001 (ip), vehicle: saline
  T/C: 120 % of control [survivor count not shown]
dose: 0.25 mg/kg/injection, schedule: Q01DX005 (iv), vehicle: water
  T/C: 102 % of control [survivor count not shown]
dose: 0.25 mg/kg/injection, schedule: Q01DX007 (ip), vehicle: saline
  T/C: 156 % of control [survivor count not shown]
dose: 0.25 mg/kg/injection, schedule: Q01DX009 (ip), vehicle: saline
  T/C: 135 [survivor count not shown], 150 [survivor count not shown], 276 % of control [survivor count not shown]
dose: 0.25 mg/kg/injection, schedule: Q01DX009 (ip), vehicle: water
  T/C: 119 % of control [survivor count not shown]
dose: 0.25 mg/kg/injection, schedule: Q01DX009 (sc), vehicle: water
  T/C: 105 % of control [survivor count not shown]
dose: 0.25 mg/kg/injection, schedule: Q03DX003 (ip), vehicle: saline
  T/C: 120 % of control [survivor count not shown]
dose: 0.25 mg/kg/injection, schedule: Q03HX008 (ip), vehicle: water
  T/C: 125 % of control [survivor count not shown]
dose: 0.25 mg/kg/injection, schedule: Q03HX016 (ip), vehicle: water
  T/C: 126 % of control [survivor count not shown]
dose: 0.25 mg/kg/injection, schedule: Q03HX024 (ip), vehicle: water
  T/C: 125 % of control [survivor count not shown]
dose: 0.25 mg/kg/injection, schedule: Q04DX003 (ip), vehicle: saline, evaluated on day 30
  T/C: 127 % of control
dose: 0.25 mg/kg/injection, schedule: Q04DX003 (ip), vehicle: saline, evaluation day not shown
  T/C: 141 % of control [survivor count not shown]
dose: 0.25 mg/kg/injection, schedule: Q04DX003 (ip), vehicle: water
  T/C: 124 % of control [survivor count not shown]
dose: 0.25 mg/kg/injection, schedule: Q08DX002 (ip), vehicle: water
  T/C: 121 % of control [survivor count not shown]
dose: 0.3 mg/kg/injection, schedule: Q04DX003 (ip), vehicle: saline
  T/C: 121 % of control [survivor count not shown]
dose: 0.38 mg/kg/injection, schedule: Q01DX001 (ip), vehicle: DMSO
  T/C: 115 % of control [survivor count not shown]
dose: 0.38 mg/kg/injection, schedule: Q01DX001 (ip), vehicle: Klucel (hydroxypropylcellulose) (HPC)
  T/C: 124 [survivor count not shown] and 125 % of control [survivor count not shown]
dose: 0.38 mg/kg/injection, schedule: Q01DX001 (ip), vehicle: other
  T/C: 119 % of control [survivor count not shown]
dose: 0.38 mg/kg/injection, schedule: Q01DX001 (ip), vehicle: saline
  T/C: 129 [survivor count not shown] (2×) and 131 % of control [survivor count not shown]
dose: 0.38 mg/kg/injection, schedule: Q01DX009 (ip), vehicle: saline
  T/C: 151 % of control [survivor count not shown]
dose: 0.38 mg/kg/injection, schedule: Q04DX003 (ip), vehicle: saline
  T/C: 132 % of control [survivor count not shown]
dose: 0.4 mg/kg/injection, schedule: Q01DX001 (ip), vehicle: none
  T/C: 132 % of control [survivor count not shown]
dose: 0.4 mg/kg/injection, schedule: Q01DX001 (ip), vehicle: saline
  T/C: 132 % of control [survivor count not shown]
dose: 0.45 mg/kg/injection, schedule: Q04DX003 (ip), vehicle: saline
  T/C: 121 % of control [survivor count not shown]
dose: 0.5 mg/kg/injection, schedule: Q01DX001 (ip), vehicle: saline
  T/C: 112 [survivor count not shown] (2×) and 130 % of control [survivor count not shown]
dose: 0.5 mg/kg/injection, schedule: Q01DX001 (ip), vehicle: water
  T/C: 124 % of control [survivor count not shown]
dose: 0.5 mg/kg/injection, schedule: Q01DX001 (iv), vehicle: water
  T/C: 107 % of control [survivor count not shown]
dose: 0.5 mg/kg/injection, schedule: Q01DX001 (sc), vehicle: water
  T/C: 104 % of control [survivor count not shown]
dose: 0.5 mg/kg/injection, schedule: Q01DX005 (iv), vehicle: water
  T/C: 103 % of control [survivor count not shown]
dose: 0.5 mg/kg/injection, schedule: Q01DX007 (ip), vehicle: saline
  T/C: 162 % of control [survivor count not shown]
dose: 0.5 mg/kg/injection, schedule: Q01DX009 (ip), vehicle: saline
  T/C: 122 [survivor count not shown], 165 [survivor count not shown], 211 % of control [survivor count not shown]
dose: 0.5 mg/kg/injection, schedule: Q01DX009 (ip), vehicle: water
  T/C: 132 % of control [survivor count not shown]
dose: 0.5 mg/kg/injection, schedule: Q01DX009 (oral), vehicle: water
  T/C: 102 % of control [survivor count not shown]
dose: 0.5 mg/kg/injection, schedule: Q01DX009 (sc), vehicle: water
  T/C: 112 % of control [survivor count not shown]
dose: 0.5 mg/kg/injection, schedule: Q03DX003 (ip), vehicle: saline
  T/C: 135 % of control [survivor count not shown]
dose: 0.5 mg/kg/injection, schedule: Q03HX008 (ip), vehicle: water
  T/C: 120 % of control [survivor count not shown]
dose: 0.5 mg/kg/injection, schedule: Q03HX016 (ip), vehicle: water
  T/C: 133 % of control [survivor count not shown]
dose: 0.5 mg/kg/injection, schedule: Q04DX003 (ip), vehicle: saline with Tween-80
  T/C: 124 % of control [survivor count not shown]
dose: 0.5 mg/kg/injection, schedule: Q04DX003 (ip), vehicle: saline, evaluated on day 30
  T/C: 147 % of control
dose: 0.5 mg/kg/injection, schedule: Q04DX003 (ip), vehicle: saline, evaluation day not shown
  T/C: 145 % of control [survivor count not shown]
dose: 0.5 mg/kg/injection, schedule: Q04DX003 (ip), vehicle: water
  T/C: 128 % of control [survivor count not shown]
dose: 0.5 mg/kg/injection, schedule: Q08DX002 (ip), vehicle: water
  T/C: 121 % of control [survivor count not shown]
dose: 0.67 mg/kg/injection, schedule: Q04DX003 (ip), vehicle: saline
  T/C: 120 % of control [survivor count not shown]
dose: 0.75 mg/kg/injection, schedule: Q01DX001 (ip), vehicle: DMSO
  T/C: 132 % of control [survivor count not shown]
dose: 0.75 mg/kg/injection, schedule: Q01DX001 (ip), vehicle: Klucel (hydroxypropylcellulose) (HPC)
  T/C: 124 [survivor count not shown] and 140 % of control [survivor count not shown]
dose: 0.75 mg/kg/injection, schedule: Q01DX001 (ip), vehicle: other
  T/C: 128 % of control [survivor count not shown]
dose: 0.75 mg/kg/injection, schedule: Q01DX001 (ip), vehicle: saline
  T/C: 131 [survivor count not shown], 135 [survivor count not shown], 139 % of control [survivor count not shown]
